This note sets out measurements from publication PMC4366210.

Sequences of proteins named here, by UniProt entry; tags and fusion partners are left off. A change or cut given only in a name is not applied to a line headed by its entry. A line that says so, or that is headed by a name, gives the form on record, which may keep a tag or linker.
UniProt Q86WV6: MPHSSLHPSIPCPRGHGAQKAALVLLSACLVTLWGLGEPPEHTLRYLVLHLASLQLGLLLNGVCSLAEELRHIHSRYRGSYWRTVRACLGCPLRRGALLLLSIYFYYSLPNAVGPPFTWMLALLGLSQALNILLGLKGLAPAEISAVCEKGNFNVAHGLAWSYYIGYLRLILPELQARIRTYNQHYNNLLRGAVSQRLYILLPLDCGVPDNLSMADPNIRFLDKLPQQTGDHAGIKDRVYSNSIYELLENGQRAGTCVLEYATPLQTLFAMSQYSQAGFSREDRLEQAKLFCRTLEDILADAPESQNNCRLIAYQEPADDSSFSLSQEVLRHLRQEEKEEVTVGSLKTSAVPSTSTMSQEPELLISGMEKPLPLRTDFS
wild-type STING (stimulator of IFN genes), AU1-tagged, Arg 232 allele (Q86WV6, form named): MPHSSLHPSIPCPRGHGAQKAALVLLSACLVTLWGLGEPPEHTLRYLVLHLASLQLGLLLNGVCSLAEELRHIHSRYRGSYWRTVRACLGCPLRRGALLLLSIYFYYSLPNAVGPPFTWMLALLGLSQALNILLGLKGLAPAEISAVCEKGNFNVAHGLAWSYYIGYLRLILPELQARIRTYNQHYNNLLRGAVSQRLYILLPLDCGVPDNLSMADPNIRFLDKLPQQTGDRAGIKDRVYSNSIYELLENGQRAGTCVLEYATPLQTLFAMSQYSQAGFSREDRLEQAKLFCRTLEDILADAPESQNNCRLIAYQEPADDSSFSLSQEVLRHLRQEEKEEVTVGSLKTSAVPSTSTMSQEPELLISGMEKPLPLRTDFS
STING L374A mutant, AU1-tagged (Q86WV6, form named): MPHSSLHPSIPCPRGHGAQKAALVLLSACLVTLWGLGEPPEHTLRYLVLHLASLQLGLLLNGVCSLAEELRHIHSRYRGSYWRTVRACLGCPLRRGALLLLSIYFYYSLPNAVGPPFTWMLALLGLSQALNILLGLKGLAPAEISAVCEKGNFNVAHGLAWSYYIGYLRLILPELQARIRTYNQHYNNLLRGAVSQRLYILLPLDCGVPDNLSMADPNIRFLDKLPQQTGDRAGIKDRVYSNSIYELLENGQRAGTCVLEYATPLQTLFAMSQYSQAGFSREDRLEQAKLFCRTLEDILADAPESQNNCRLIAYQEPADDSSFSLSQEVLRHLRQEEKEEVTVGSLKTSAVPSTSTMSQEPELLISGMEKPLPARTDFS
STING R284M mutant, AU1-tagged (Q86WV6, form named): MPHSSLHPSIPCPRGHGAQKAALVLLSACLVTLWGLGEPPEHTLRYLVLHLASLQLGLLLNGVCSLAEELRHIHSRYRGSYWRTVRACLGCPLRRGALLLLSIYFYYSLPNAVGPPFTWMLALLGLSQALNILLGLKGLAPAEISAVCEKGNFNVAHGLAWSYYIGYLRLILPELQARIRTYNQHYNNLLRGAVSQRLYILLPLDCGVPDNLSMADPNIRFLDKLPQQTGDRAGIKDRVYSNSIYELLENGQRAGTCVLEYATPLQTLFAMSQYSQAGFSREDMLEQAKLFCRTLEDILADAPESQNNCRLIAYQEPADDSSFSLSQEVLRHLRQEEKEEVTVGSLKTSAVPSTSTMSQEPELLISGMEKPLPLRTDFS

These are yes or no findings as the source states them, for the method shown. Binding seen in cells or lysates may run through a third protein. Some entries that bind do so weakly or less than the wild type.

Common to all, as to experiment: co-IP; anti-AU1 immunoprecipitates from HEK293T cells transfected with AU1-tagged STING, lysed 20 hrs after transfection in CHAPS lysis buffer (40mM Hepes pH 7.4, 0.3% CHAPS); 4°C; blot for endogenous TBK1
For test [1], the target named is wild-type STING (stimulator of IFN genes), AU1-tagged, Arg 232 allele (human) (UniProt Q86WV6).
Test [2] has as its target STING L374A mutant, AU1-tagged (human) (UniProt Q86WV6).
Test [3] deals with STING R284M mutant, AU1-tagged (human) (UniProt Q86WV6).

B1: TBK1 (enzyme, UniProt Q9UHD2 1-729)
chain: MQSTSNHLWLLSDILGQGATANVFRGRHKKTGDLFAIKVFNNISFLRPVDVQMREFEVLKKLNHKNIVKLFAIEEETTTRHKVLIMEFCPCGSLYTVLEEPSNAYGLPESEFLIVLRDVVGGMNHLRENGIVHRDIKPGNIMRVIGEDGQSVYKLTDFGAARELEDDEQFVSLYGTEEYLHPDMYERAVLRKDHQKKYGATVDLWSIGVTFYHAATGSLPFRPFEGPRRNKEVMYKIITGKPSGAISGVQKAENGPIDWSGDMPVSCSLSRGLQVLLTPVLANILEADQEKCWGFDQFFAETSDILHRMVIHVFSLQQMTAHKIYIHSYNTATIFHELVYKQTKIISSNQELIYEGRRLVLEPGRLAQHFPKTTEENPIFVVSREPLNTIGLIYEKISLPKVHPRYDLDGDASMAKAITGVVCYACRIASTLLLYQELMRKGIRWLIELIKDDYNETVHKKTEVVITLDFCIRNIEKTVKVYEKLMKINLEAAELGEISDIHTKLLRLSSSQGTIETSLQDIDSRLSPGGSLADAWAHQEGTHPKDRNVEKLQVLLNCMTEIYYQFKKDKAERRLAYNEEQIHKFDKQKLYYHATKAMTHFTDECVKKYEAFLNKSEEWIRKMLHLRKQLLSLTNQCFDIEEEVSKYQEYTNELQETLPQKMFTASSGIKHTMTPIYPSSNTLVEMTLGMKKLKEEMEGVVKELAENNHILERFGSLTMDGGLRNVDCL
With B1, the binding entry in test [1] is on record as “binds weakly”; in test [2], “no binding”; in test [3] it was “binds”.
